The supplement of paper PMC6411743
± gives the standard deviation of the averaged measurements. The list shows a part of the results, in another mix than the full data.

The chains behind the UniProt entries cited, without tags or fusion partners. Where a name states a change or a piece, a line headed by the entry shows the natural chain unless it says otherwise.
UniProt Q13868, whole entry: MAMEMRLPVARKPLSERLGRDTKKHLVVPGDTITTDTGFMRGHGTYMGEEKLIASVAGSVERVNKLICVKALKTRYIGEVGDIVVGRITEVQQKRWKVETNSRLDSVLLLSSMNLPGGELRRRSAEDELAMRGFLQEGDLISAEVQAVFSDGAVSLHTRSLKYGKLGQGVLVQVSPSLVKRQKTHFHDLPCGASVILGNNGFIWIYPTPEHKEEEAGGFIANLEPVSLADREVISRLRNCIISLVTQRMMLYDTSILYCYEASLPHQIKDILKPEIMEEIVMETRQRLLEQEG
UniProt Q9P2W9: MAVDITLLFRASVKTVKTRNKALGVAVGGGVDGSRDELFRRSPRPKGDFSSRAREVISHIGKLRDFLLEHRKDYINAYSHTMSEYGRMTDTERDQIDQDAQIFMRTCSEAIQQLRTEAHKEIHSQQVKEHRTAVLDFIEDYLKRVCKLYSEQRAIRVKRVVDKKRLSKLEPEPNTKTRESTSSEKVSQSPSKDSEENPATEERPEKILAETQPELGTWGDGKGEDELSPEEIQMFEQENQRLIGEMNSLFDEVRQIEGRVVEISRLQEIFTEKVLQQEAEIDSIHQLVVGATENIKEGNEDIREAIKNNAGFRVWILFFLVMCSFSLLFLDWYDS
UniProt O00541, whole entry: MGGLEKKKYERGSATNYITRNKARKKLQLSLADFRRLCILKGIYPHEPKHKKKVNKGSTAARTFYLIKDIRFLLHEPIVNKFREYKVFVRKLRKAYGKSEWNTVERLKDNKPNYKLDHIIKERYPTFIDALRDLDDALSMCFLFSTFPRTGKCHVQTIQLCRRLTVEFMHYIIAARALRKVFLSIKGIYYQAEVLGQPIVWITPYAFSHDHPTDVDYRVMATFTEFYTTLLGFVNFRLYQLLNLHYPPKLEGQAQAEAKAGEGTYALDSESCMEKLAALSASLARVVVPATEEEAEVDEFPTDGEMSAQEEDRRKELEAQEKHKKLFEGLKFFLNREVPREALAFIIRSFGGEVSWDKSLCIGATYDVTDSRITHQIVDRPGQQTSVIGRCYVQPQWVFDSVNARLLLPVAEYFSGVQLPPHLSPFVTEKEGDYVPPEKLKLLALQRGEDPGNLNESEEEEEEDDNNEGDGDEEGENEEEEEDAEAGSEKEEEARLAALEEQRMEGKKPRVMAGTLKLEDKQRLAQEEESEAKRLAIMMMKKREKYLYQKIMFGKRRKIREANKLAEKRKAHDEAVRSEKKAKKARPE
UniProt O43768: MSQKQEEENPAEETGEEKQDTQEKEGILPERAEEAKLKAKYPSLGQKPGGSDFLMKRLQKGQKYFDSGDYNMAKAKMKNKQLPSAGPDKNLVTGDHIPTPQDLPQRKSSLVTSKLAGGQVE
UniProt Q9UNL2: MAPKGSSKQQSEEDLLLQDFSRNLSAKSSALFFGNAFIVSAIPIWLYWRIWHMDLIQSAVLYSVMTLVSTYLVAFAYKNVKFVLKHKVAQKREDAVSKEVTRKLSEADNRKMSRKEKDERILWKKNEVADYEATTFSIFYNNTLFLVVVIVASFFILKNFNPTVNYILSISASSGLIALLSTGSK
UniProt Q13685: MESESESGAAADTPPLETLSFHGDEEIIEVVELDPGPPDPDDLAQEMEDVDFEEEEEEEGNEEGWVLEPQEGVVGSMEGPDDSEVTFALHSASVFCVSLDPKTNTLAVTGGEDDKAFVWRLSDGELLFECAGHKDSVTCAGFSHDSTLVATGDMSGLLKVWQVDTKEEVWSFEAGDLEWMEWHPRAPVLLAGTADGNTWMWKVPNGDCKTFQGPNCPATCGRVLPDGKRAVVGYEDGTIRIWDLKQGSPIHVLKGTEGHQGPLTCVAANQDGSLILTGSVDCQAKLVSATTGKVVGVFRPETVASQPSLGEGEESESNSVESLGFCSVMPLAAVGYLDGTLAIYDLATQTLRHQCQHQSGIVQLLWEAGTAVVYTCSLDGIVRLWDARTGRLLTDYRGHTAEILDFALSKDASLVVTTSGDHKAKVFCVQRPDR
UniProt P42892: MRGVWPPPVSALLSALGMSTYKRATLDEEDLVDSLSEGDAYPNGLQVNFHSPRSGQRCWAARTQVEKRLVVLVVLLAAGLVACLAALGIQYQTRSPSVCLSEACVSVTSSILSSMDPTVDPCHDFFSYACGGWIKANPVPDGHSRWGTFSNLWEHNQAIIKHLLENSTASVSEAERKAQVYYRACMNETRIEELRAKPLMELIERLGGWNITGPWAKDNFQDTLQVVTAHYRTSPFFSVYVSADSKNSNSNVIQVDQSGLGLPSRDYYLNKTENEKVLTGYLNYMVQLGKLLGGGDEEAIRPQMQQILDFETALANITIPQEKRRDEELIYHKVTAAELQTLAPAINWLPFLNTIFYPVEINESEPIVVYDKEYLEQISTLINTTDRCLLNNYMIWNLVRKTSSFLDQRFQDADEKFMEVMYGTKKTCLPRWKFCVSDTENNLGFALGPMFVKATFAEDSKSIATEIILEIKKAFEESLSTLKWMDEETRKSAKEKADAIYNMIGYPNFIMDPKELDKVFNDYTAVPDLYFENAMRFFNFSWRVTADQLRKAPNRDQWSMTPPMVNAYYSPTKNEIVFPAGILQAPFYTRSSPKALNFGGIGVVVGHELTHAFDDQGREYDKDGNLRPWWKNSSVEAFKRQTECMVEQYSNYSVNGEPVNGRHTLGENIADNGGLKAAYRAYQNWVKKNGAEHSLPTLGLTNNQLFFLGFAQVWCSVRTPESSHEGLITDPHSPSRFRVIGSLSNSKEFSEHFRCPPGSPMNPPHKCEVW
UniProt Q9BUL8: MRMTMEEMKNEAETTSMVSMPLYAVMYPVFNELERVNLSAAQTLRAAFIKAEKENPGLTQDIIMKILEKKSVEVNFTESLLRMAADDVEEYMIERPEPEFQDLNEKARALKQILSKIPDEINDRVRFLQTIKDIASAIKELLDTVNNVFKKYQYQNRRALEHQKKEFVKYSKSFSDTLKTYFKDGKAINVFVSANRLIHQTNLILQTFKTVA
UniProt Q9NY35: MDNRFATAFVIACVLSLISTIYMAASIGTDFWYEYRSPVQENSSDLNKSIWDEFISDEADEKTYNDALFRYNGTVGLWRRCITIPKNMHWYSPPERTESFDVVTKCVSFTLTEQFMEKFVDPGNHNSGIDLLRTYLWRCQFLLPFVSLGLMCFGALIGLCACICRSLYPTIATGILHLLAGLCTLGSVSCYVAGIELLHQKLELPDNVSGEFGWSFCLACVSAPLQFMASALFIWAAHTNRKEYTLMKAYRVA
UniProt Q9Y519: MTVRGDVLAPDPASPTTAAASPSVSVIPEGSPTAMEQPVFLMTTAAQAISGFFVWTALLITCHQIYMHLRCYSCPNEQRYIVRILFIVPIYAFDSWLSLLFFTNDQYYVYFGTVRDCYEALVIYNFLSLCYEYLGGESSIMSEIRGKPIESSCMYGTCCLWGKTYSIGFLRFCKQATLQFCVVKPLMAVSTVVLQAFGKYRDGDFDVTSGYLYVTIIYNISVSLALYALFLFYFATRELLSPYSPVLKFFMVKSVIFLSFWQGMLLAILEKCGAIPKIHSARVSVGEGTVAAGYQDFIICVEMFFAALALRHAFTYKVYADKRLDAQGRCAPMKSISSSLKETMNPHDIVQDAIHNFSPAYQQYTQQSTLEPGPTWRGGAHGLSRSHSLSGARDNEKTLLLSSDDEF
UniProt P27144: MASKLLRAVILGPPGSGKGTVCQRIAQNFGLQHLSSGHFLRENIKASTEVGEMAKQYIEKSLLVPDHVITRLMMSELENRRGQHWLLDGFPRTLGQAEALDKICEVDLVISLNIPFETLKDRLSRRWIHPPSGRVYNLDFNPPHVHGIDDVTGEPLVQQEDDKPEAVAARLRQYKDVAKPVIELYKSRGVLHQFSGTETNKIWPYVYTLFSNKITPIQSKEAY
UniProt Q9Y484: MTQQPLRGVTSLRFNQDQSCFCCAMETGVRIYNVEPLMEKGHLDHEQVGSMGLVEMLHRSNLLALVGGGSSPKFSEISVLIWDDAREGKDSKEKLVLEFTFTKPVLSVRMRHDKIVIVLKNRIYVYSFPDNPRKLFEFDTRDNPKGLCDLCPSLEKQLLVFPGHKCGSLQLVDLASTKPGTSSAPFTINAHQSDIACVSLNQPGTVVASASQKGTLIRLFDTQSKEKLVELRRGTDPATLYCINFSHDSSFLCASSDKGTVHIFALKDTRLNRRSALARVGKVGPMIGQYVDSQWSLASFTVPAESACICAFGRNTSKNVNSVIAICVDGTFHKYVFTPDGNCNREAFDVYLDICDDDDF
UniProt Q16891: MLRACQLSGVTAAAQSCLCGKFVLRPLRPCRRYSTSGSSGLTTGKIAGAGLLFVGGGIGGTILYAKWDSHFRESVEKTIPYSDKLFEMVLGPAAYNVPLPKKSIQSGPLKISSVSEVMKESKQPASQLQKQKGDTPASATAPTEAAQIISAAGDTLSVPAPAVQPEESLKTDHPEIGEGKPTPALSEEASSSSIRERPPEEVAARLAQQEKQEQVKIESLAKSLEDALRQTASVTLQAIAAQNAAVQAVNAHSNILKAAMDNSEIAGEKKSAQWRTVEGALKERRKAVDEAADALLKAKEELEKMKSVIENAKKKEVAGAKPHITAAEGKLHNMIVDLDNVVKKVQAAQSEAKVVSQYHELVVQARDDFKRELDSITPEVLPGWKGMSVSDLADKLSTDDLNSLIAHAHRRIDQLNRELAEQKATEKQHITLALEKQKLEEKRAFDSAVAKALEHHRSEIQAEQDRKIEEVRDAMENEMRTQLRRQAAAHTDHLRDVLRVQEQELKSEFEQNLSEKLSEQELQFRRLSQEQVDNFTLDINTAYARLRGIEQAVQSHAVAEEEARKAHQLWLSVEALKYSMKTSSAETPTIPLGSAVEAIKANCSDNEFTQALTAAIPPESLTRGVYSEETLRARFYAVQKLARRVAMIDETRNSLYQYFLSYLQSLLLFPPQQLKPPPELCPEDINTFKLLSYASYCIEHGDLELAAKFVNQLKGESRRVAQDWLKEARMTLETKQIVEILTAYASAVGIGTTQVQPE
UniProt Q14728: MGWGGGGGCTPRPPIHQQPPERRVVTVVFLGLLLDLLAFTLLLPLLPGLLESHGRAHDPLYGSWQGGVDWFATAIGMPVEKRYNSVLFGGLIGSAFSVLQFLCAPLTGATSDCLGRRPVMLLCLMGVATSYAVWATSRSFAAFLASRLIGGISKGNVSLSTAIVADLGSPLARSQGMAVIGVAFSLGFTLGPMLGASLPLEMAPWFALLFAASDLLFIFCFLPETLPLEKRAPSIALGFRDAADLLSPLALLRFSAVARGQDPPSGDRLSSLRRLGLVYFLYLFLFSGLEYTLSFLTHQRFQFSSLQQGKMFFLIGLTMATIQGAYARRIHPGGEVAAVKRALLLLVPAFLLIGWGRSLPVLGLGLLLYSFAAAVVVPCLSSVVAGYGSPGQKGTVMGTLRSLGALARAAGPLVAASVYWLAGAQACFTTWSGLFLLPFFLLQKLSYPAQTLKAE
UniProt Q02833: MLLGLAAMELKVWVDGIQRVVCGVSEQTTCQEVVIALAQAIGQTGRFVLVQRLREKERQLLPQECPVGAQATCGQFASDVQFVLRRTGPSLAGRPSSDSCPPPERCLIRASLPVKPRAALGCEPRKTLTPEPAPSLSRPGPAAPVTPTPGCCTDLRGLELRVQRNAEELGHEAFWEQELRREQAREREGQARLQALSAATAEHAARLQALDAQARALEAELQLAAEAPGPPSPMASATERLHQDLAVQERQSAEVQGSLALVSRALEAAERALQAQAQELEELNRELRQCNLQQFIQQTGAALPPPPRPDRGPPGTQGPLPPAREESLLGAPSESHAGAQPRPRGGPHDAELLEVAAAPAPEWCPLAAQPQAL

Compound: Nc1ncnc2c1ncn2[C@@H]1O[C@H](COP(=O)(O)OP(=O)(O)OP(=O)(O)O)[C@@H](O)[C@H]1O [adenosine triphosphate]
Experiment: NP40-soluble protein abundance relative to vehicle (solubility fold change) (ratio); higher = more soluble protein in presence of ATP
Procedure, shortened: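 Jurkat crude lysate (Dounce-homogenised) was treated with eight concentrations from 0.1 to 10 mM for 10 min at room temperature, then 3 min at 37 °C. It was solubilised with 0.8% NP40 and benzonase (60 min, 4 °C) and ultracentrifuged, and the supernatant was TMT-labelled for LC-MS/MS. Intensities were vsn-normalised, and the value is the fold change against the NP40-processed vehicle per replicate, from three independent experiments.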

Target	NP40-soluble protein abundance (concentration: 1mM)	NP40-soluble protein abundance (concentration: 2mM)	NP40-soluble protein abundance (concentration: 4mM)	NP40-soluble protein abundance (concentration: 6mM)	NP40-soluble protein abundance (concentration: 8mM)	NP40-soluble protein abundance (concentration: 10mM)
HACD1 (UniProt B0YJ81)	1.056 ± 0.0071	1.06 ± 0.019	1.07 ± 0.051	1.05 ± 0.025	1.08 ± 0.038	1.12 ± 0.073
A3KFL2 and related entries (UniProt Q13868)	1.1 ± 0.089	1.07 ± 0.089	1.16 ± 0.059	1.15 ± 0.12	1.25 ± 0.074	1.25 ± 0.11
A0A0U1RQK7 (UniProt O43432)	1.04 ± 0.013	1.03 ± 0.032	1.03 ± 0.019	1.07 ± 0.019	1.024 ± 0.0091	1.04 ± 0.03
B9EGE7 and related entries (UniProt Q8TCN5)	0.839 ± 0.11	0.911 ± 0.11	0.937 ± 0.063	0.936 ± 0.078	0.911 ± 0.13	0.963 ± 0.061
D6REL5 and related entries (UniProt Q6UWZ7)	0.987 ± 0.025	1.02 ± 0.06	1.01 ± 0.035	1.04 ± 0.039	1.02 ± 0.047	1.03 ± 0.05
D6RF48 and related entries (UniProt Q9P2W9)	0.94 ± 0.052	0.947 ± 0.051	0.938 ± 0.045	0.969 ± 0.043	0.925 ± 0.062	0.945 ± 0.035
B5MCF9 and related entries (UniProt O00541)	0.9976 ± 0.0083	1.018 ± 0.005	1.01 ± 0.017	0.999 ± 0.019	0.996 ± 0.028	1.04 ± 0.025
B1AQP1 and related entries (UniProt P22415)	0.947 ± 0.035	0.98 ± 0.046	0.937 ± 0.03	0.986 ± 0.029	0.923 ± 0.033	0.917 ± 0.052
A6NMQ3 and related entries (UniProt O43768)	0.771 ± 0.098	0.746 ± 0.03	0.75 ± 0.11	0.811 ± 0.016	0.667 ± 0.04	0.725 ± 0.1
C9JA28 and related entries (UniProt Q9UNL2)	0.94 ± 0.043	0.919 ± 0.033	0.883 ± 0.032	0.93 ± 0.048	0.885 ± 0.078	0.871 ± 0.071
FAM171A2 (UniProt A8MVW0)	0.924 ± 0.049	0.948 ± 0.018	0.973 ± 0.09	0.887 ± 0.064	0.89 ± 0.011	0.892 ± 0.03
C9JEH3 and related entries (UniProt Q13685)	1.02 ± 0.091	0.994 ± 0.072	0.981 ± 0.11	1.01 ± 0.069	0.99 ± 0.12	0.962 ± 0.095
C9JF66 and related entries (UniProt Q6PIZ9)	0.854 ± 0.11	0.913 ± 0.093	0.881 ± 0.081	0.927 ± 0.021	0.854 ± 0.071	0.855 ± 0.048
UniProt A3KMH1 and related entries	0.998 ± 0.034	0.964 ± 0.011	0.987 ± 0.013	0.958 ± 0.042	1.03 ± 0.015	1.01 ± 0.036
A0A0G2JLB3|A0A0G2JNZ0|A0A0G2JNZ5|P04062 and related entries (UniProt P04062)	0.896 ± 0.12	0.951 ± 0.051	0.94 ± 0.043	0.917 ± 0.076	0.898 ± 0.057	0.929 ± 0.029
B4DKB2 and related entries (UniProt P42892)	0.941 ± 0.024	0.975 ± 0.021	0.968 ± 0.013	0.99 ± 0.06	0.945 ± 0.028	0.918 ± 0.045
C9J5C3 and related entries (UniProt Q9BUL8)	0.967 ± 0.054	0.962 ± 0.046	0.943 ± 0.05	0.945 ± 0.082	0.981 ± 0.064	0.922 ± 0.075
A0A0R4J2F2|D6R9S8 and related entries (UniProt Q9NY35)	0.929 ± 0.095	0.973 ± 0.084	0.957 ± 0.012	0.947 ± 0.09	0.877 ± 0.043	0.905 ± 0.031
A0A0J9YYJ3|Q9Y519 (UniProt Q9Y519)	0.892 ± 0.12	0.897 ± 0.05	0.903 ± 0.1	0.945 ± 0.14	0.956 ± 0.038	0.894 ± 0.049
A0A0R4J2E2|Q9Y3T6 and related entries (UniProt Q9Y3T6)	0.945 ± 0.055	0.975 ± 0.027	0.957 ± 0.028	0.933 ± 0.031	0.947 ± 0.024	0.949 ± 0.018
YDJC (UniProt A8MPS7)	1.03 ± 0.039	1.08 ± 0.052	1.02 ± 0.043	1 ± 0.056	0.986 ± 0.055	0.982 ± 0.046
D3DQ64 and related entries (UniProt P27144)	1.05 ± 0.1	0.973 ± 0.047	1.07 ± 0.046	1.02 ± 0.048	1.07 ± 0.066	0.992 ± 0.1
UniProt A2VDJ0 and related entries	1.03 ± 0.06	1.1 ± 0.16	1.04 ± 0.028	1.03 ± 0.092	1.15 ± 0.28	1.09 ± 0.16
A0A0U1RR06|A6NM71 and related entries (UniProt Q9Y484)	1.05 ± 0.15	1.11 ± 0.16	1.08 ± 0.08	1.05 ± 0.18	0.984 ± 0.062	0.963 ± 0.047
C9J406 and related entries (UniProt Q16891)	0.993 ± 0.051	0.942 ± 0.032	0.906 ± 0.04	0.974 ± 0.13	0.916 ± 0.053	0.901 ± 0.041
D6RE79 and related entries (UniProt Q14728)	0.971 ± 0.095	1 ± 0.075	0.991 ± 0.051	0.935 ± 0.11	1.05 ± 0.024	1.05 ± 0.12
A6NHB5 and related entries (UniProt Q14202)	1.08 ± 0.041	1.09 ± 0.046	1.12 ± 0.051	1.14 ± 0.09	1.17 ± 0.096	1.21 ± 0.077
A0A0G2JLR5|A0A0G2JMW4|Q02833 and related entries (UniProt Q02833)	1 ± 0.013	0.963 ± 0.059	0.924 ± 0.025	0.97 ± 0.062	0.898 ± 0.021	0.847 ± 0.067
B0QY95 and related entries (UniProt Q9NQG6+B0QY95)	0.919 ± 0.038	0.95 ± 0.054	0.979 ± 0.09	0.952 ± 0.086	0.9476 ± 0.0088	0.97 ± 0.05
C9JKL2 and related entries (UniProt O95772)	0.941 ± 0.024	0.945 ± 0.042	0.903 ± 0.016	0.907 ± 0.067	0.988 ± 0.086	0.876 ± 0.029

Rewritten comma-delimited: part of the list above.
Target,NP40-soluble protein abundance (concentration: 1mM),NP40-soluble protein abundance (concentration: 2mM),NP40-soluble protein abundance (concentration: 4mM),NP40-soluble protein abundance (concentration: 6mM),NP40-soluble protein abundance (concentration: 8mM),NP40-soluble protein abundance (concentration: 10mM)
B5MCF9 and related entries (UniProt O00541),0.9976 ± 0.0083,1.018 ± 0.005,1.01 ± 0.017,0.999 ± 0.019,0.996 ± 0.028,1.04 ± 0.025
C9JA28 and related entries (UniProt Q9UNL2),0.94 ± 0.043,0.919 ± 0.033,0.883 ± 0.032,0.93 ± 0.048,0.885 ± 0.078,0.871 ± 0.071
FAM171A2 (UniProt A8MVW0),0.924 ± 0.049,0.948 ± 0.018,0.973 ± 0.09,0.887 ± 0.064,0.89 ± 0.011,0.892 ± 0.03
B4DKB2 and related entries (UniProt P42892),0.941 ± 0.024,0.975 ± 0.021,0.968 ± 0.013,0.99 ± 0.06,0.945 ± 0.028,0.918 ± 0.045
A6NHB5 and related entries (UniProt Q14202),1.08 ± 0.041,1.09 ± 0.046,1.12 ± 0.051,1.14 ± 0.09,1.17 ± 0.096,1.21 ± 0.077
